These are yes or no findings as the source states them, for the method shown. Binding seen in cells or lysates may run through a third protein. Some entries that bind do so weakly or less than the wild type.
Target: YWHAE (human (endogenous in H929)) (UniProt P62258)
Test: co-IP; endogenous co-immunoprecipitation from H929 cell lysate (IP lysis buffer), Protein A/G agarose beads and anti-YWHAE at 4 °C overnight, immunoblot with anti-TRIP13; anti-IgG as non-specific control; also the untreated control of Fig. 5h

Sequences of proteins named here, by UniProt entry; tags and fusion partners are left off.
UniProt P62258: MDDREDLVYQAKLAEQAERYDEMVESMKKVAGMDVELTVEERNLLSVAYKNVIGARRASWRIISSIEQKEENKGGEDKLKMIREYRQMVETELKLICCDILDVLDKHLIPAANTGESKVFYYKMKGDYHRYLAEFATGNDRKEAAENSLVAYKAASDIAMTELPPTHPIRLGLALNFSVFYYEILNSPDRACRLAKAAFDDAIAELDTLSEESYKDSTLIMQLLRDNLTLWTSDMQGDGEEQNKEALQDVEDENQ

B1: Thyroid hormone receptor-interacting protein 13 (TRIP13) (protein, UniProt Q15645 1-432)
chain: MDEAVGDLKQALPCVAESPTVHVEVHQRGSSTAKKEDINLSVRKLLNRHNIVFGDYTWTEFDEPFLTRNVQSVSIIDTELKVKDSQPIDLSACTVALHIFQLNEDGPSSENLEEETENIIAANHWVLPAAEFHGLWDSLVYDVEVKSHLLDYVMTTLLFSDKNVNSNLITWNRVVLLHGPPGTGKTSLCKALAQKLTIRLSSRYRYGQLIEINSHSLFSKWFSESGKLVTKMFQKIQDLIDDKDALVFVLIDEVESLTAARNACRAGTEPSDAIRVVNAVLTQIDQIKRHSNVVILTTSNITEKIDVAFVDRADIKQYIGPPSAAAIFKIYLSCLEELMKCQIIYPRQQLLTLRELEMIGFIENNVSKLSLLLNDISRKSEGLSGRVLRKLPFLAHALYVQAPTVTIEGFLQALSLAVDKQFEERKKLAAYI
B1 was tested. Which binding did it give?
The binding was “binds”.

— publication PMC10680230
